{
  "source": "patent US7947458B1",
  "about": "“Placental human neurokinin B precursor” (Perinatal Diagnostics Limited, priority 1999, dated 2011)",
  "key": {"[1]": {"assay": "Radioimmunoassay of neurokinin B in placental extracts", "set-up": "species or system human"}, "[2]": {"assay": "Radioimmunoassay of neurokinin B in extracted plasma", "set-up": "species or system human"}},
  "data": [
    {"substance": "neurokinin B [NKB]", "values": [
      {"measurement": "NKB content of placental extracts", "setting": "[1]; early placenta", "value": 21, "unit": "pg/g"},
      {"measurement": "NKB content of placental extracts", "setting": "[1]; term placenta", "value": 25, "unit": "pg/g"},
      {"measurement": "plasma level of the peptide", "setting": "[2]; non-pregnant volunteers", "value": "low levels"},
      {"measurement": "level of neurokinin B in the maternal blood stream", "setting": "[2]; normal pregnancy, before near term", "value": "zero or very low levels"},
      {"measurement": "concentration of plasma NKB", "setting": "[2]; normal pregnancy, maternal blood at or near term", "value": "~100", "unit": "picomolar"},
      {"measurement": "concentration of neurokinin B in maternal plasma", "setting": "[2]; pregnancy induced hypertension or pre-eclampsia, late pregnancy/near term", "value": "nanomolar range"}
    ]}
  ]
}
